Data from patent US10858367B2, “Compounds” (GLAXOSMITHKLINE INTELLECTUAL PROPERTY DEVELOPMENT LIMITED, priority 2017, dated 2020).
Some of these results come from one statement about several compounds together.

Chains of the proteins cited; added tags and fusions are not shown. A line that says so, or that is headed by a name, gives the form on record, which may keep a tag or linker.
UniProt Q5S007, with tags, fused parts or gaps R50H: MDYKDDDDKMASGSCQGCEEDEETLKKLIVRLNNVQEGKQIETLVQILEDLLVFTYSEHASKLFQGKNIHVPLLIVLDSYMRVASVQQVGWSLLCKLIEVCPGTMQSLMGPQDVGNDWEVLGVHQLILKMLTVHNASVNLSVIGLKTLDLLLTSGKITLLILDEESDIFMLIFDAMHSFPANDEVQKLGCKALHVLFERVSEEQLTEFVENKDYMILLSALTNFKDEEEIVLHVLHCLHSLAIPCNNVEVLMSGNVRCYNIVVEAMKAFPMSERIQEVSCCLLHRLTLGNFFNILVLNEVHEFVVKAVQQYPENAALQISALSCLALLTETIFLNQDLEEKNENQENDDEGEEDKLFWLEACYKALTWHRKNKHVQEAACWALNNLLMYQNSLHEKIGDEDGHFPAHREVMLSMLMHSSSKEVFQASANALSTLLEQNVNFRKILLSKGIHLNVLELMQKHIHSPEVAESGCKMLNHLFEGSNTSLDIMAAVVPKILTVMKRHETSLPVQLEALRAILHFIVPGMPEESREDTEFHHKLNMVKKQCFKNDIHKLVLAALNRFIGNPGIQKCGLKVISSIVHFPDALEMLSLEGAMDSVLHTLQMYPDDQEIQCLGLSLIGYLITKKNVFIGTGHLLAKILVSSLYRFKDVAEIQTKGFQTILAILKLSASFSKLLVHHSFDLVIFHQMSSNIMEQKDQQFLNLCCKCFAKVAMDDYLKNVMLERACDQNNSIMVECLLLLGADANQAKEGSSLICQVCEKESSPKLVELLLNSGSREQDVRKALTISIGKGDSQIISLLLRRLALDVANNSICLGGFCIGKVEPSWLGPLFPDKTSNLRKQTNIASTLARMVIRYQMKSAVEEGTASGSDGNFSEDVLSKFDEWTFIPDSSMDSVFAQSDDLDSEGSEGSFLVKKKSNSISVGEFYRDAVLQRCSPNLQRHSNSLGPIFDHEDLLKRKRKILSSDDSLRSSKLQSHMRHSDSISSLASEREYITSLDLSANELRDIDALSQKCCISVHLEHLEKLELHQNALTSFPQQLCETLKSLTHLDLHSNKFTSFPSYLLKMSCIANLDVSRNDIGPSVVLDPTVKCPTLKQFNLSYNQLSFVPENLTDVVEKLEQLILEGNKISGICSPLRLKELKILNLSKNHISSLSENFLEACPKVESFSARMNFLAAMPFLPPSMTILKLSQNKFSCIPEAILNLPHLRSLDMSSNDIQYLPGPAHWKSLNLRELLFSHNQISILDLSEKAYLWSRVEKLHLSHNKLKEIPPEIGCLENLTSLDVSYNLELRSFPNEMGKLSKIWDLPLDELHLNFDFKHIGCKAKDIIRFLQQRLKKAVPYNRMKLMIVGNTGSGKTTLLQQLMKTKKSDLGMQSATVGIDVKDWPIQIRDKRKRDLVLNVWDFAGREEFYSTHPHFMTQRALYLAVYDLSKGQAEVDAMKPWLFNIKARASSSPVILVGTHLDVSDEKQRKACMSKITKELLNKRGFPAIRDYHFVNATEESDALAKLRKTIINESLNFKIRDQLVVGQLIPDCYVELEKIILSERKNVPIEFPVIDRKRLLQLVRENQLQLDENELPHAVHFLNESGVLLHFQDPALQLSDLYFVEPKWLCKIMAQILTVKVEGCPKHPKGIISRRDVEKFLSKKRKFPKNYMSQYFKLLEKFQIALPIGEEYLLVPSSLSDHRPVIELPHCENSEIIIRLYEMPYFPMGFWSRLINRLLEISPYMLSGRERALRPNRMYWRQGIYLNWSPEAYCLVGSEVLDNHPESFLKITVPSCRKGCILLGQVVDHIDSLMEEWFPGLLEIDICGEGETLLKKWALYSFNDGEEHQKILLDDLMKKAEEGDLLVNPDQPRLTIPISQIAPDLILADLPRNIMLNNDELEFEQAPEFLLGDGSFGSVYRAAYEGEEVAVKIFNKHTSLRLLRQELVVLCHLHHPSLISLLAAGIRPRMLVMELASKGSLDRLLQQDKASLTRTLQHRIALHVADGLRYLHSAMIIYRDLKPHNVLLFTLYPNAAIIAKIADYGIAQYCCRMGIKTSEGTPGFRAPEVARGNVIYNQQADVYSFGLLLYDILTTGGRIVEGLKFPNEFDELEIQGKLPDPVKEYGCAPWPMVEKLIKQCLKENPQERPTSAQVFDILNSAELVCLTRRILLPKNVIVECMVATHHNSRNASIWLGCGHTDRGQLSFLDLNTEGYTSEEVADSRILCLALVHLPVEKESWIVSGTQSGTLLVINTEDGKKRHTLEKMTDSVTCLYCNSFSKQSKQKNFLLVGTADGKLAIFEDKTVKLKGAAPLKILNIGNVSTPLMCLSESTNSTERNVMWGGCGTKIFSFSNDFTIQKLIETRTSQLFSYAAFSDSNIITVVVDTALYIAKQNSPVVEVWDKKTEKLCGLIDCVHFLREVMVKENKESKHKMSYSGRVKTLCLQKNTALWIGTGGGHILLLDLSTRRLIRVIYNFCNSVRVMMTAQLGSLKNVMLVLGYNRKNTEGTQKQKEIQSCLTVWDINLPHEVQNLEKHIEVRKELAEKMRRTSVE

These compounds were tested against T1, full length G2019 human LRRK2 (Homo sapiens, UniProt Q5S007, R50H) (assay: Full length G2019 human LRRK2 Inhibition Mass Spectrometry assay). Conditions: 25 nM LRRK2 enzyme, 25 uM LRRKtide, 2 mM ATP; RapidFire mass spectrometry.
T1 construct: made in house; host or cells: HEK293 6E cells transduced with BacMam virus (virus generated in Sf9 cells)
Format: biochemical
Text: a. Full Length G2019 Human LRRK2 Inhibition Mass Spectrometry Assay
This assay for Leucine Rich Repeat Kinase 2 (LRRK2) inhibition is based on the direct measurement of the peptide ‘LRRKtide’ (LRRKtide: RLGRDKYKT*LRQIRQ and “*” refers to the site of phosphorylation.) and phosphorylated ‘LRRKtide’ using a high throughput RapidFire mass spectrometry assay. Inhibitors are compounds that reduce the conversion of LRRKtide to phospho-LRRKtide.
Human G2019 LRRK2 Plasmid Preparation
Primers used for PCR cloning: • pHTBV-F:SEQ ID No: 1 • LRRK2 wt-F1:SEQ ID No: 2 • LRRK2 wt-R1: SEQ ID No: 3 • LRRK2 wt-F2: SEQ ID No: 4 • LRRK2 wt-R2: SEQ ID No: 5 • LRRK2 wt-F3:SEQ ID No: 6 • pHTBV-R: SEQ ID No: 7 pHTBV1-N-Flag-hu LRRK2 was generated by PCR amplifying the full length LRRK2 sequence with N terminal Flag tag from pcDNA3.1(+)_Human_LRRK2 (NCBI Reference Sequence: NP_940980.3) with the primers described above, and cloned into pHTBV1mcs3 vector between BamHI and KpnI sites.
The G2019 full length Flag-LRRK2 coding sequence is SEQ ID No: 8.
The translated amino acid sequence for human G2019 full length N terminal flag tagged LRRK2 protein is SEQ ID No: 9.
Protein Expression & Purification a) Expression of Flag Tagged Full Length G2019 Human LRRK2
HEK293 6E cells were incubated in a 37° C. incubator with a humidified atmosphere of 5% CO2 on an orbital shaker rotating at 110 rpm. On the day of transduction, the cell viability was higher than 98% and the cell density was in the range of 1×10^6˜1.5×10^6 cells/ml. HEK293 6E cells were centrifuged at 1,000 rpm for 10 min, and then the cells were resuspended in fresh Freestyle 293 expression medium (Invitrogen: 12338) with 0.1% F-68(Invitrogen: 24040-032) but without antibiotics (G418) at density of 1×10^6 cells/ml. BacMam virus with Flag-hu LRRK2 (genotypically normal) gene was centrifuged at 40,000 g for 2 hours, then resuspended in fresh Freestyle 293 expression medium. The resuspended virus was added into the cells in at MOI of 10. The cells were incubated in a 37° C. incubator with a humidified atmosphere of 5% CO2 in air on an orbital shaker rotating at 110 rpm. Cultures were harvested at approximately 48 hours post-transduction by centrifugation at 4,000 rpm for 20 min and pellets were frozen for purification. […]
b) Purification of Flag Tagged Full Length G2019 Human LRRK2
The suspended cells were lysed by sonication on ice for 30 min (2 secs on/4 sec off, 20% amplitude), and centrifuged at 10,000 rpm for 30 minutes at 4° C. The supernatant was incubated with 1 mL per litre of cell culture of anti-Flag magnetic beads (Sigma-Aldrich: M8823) at 4° C. for 3 hours, then the beads were washed by 5 mL (5 column volume) binding buffer (50 mM Tris pH7.5@ 4 C, 500 mM NaCl, 0.5 mM EDTA, 0.1% TritonX-100, 10% glycerol, freshly add 2 mM DTT) for three times. The Flag tagged LRRK2 proteins were eluted by Elution buffer (50 mM Tris pH7.5@ 4 C, 500 mM NaCl, 0.5 mM EDTA, 0.1% TritonX-100, 10% glycerol, freshly add 2 mM DTT, 250 ug/ml Flag peptide (Sigma-Aldrich:F3290)) at 4° C. for 2 hours. Flag peptide was removed by Zeba Spin Desalting Columns, 7K MWCO (Thermo-Fisher: 89893) and the buffer of eluted LRRK2 proteins was exchanged into Storage Buffer (50 mM Tris pH7.5@4 C, 150 mM NaCl, 0.5 mM EDTA, 0.02% Triton X-100, 2 mM DTT and 50% Glycerol) using Amicon Ultra Centrifugal Filter Units (100 kD) (Merck: UFC910096). Fractions containing LRRK2 proteins were pooled, aliquoted and stored at −80° C. Protein concentration was determined by Bradford protein assay, and protein purity was analyzed by NuPAG Novex 4-12% Bis-Tris Protein Gels (Invitrogen: NP0322BOX).
Assay Protocol • 1) A 10 mM test compound was dissolved in 100% DMSO and serially diluted 1 in 4. 100 nL of this dilution series was then added to a 384 well, v bottom polypropylene plate, excluding columns 6 and 18. 100 nL of DMSO was added to columns 6 and 18 as controls wells. […]

| SMILES | pIC50 in the full length G2019 human LRRK2 Inhibition Mass Spectrometry assay |
| --- | --- |
| Cc1nc(N2CC3CC(C2)C3C(=O)O)cc(-n2ncc3cc(C)c(C4CCOCC4)cc32)n1 (centres unmarked) [Example E80, 3-{2-Methyl-6-[5-methyl-6-(tetrahydro-pyran-4-yl)-indazol-1-yl]-pyrimidin-4-yl}-3-aza-bicyclo[3.1.1]heptane-6-carboxylic Acid] | ≥ 6.0 |
| COc1nc(N2CC3CC(C2)O3)cc(-n2ncc3cc(C)c(C4CCN(C5COC5)CC4)cc32)n1 [Example E43, 3-(2-Methoxy-6-(5-methyl-6-(1-(oxetan-3-yl)piperidin-4-yl)-1H-indazol-1-yl)pyrimidin-4-yl)-6-oxa-3-azabicyclo[3.1.1]heptane] | ≥ 6.0 |
| Cc1nc(N2C[C@H]3C[C@@H]2CO3)cc(-n2ncc3cc(C)c(C4CCN(C5COC5)CC4(C)O)cc32)n1 (single isomer, unassigned) [Example E147] | ≥ 6.0 |
| Cc1nc(N2C3CCC2COC3)cc(-n2ncc3cc(C)c(C4CCN(C5COC5)CC4)cc32)n1 [Example E45, 8-(2-methyl-6-(5-methyl-6-(1-(oxetan-3-yl)piperidin-4-yl)-1H-indazol-1-yl)pyrimidin-4-yl)-3-oxa-8-azabicyclo[3.2.1]octane] | ≥ 6.0 |
| COc1nc(N2CC3CCC(C2)O3)cc(-n2ncc3cc(C)c(C4CCNCC4)cc32)n1.O=C(O)C(F)(F)F [Example E62, 3-(2-methoxy-6-(5-methyl-6-(piperidin-4-yl)-1H-indazol-1-yl)pyrimidin-4-yl)-8-oxa-3-azabicyclo[3.2.1]octane 2,2,2-trifluoroacetate] | ≥ 6.0 |
| Cc1nc(N2C[C@@H]3C[C@H]2CO3)cc(-n2ncc3cc(Cl)c(N4CCC(C)(O)C4)cc32)n1 (single isomer, unassigned) [Example E47] | ≥ 6.0 |
| Cc1nc(N2C[C@@H]3C[C@H]2CO3)cc(-n2ncc3cc(C)c(C4CCN(C5COC5)CC4)cc32)n1 [Example E40, (1S,4S)-5-(2-methyl-6-(5-methyl-6-(1-(oxetan-3-yl)piperidin-4-yl)-1H-indazol-1-yl)pyrimidin-4-yl)-2-oxa-5-azabicyclo[2.2.1]heptane] | ≥ 6.0 |
| COc1nc(N2C[C@@H]3C[C@H]2CO3)cc(-n2ncc3cc(C)c(C4CCN(CCC(=O)O)CC4F)cc32)n1 (single isomer, unassigned) [Example E161] | ≥ 7.0 |
| COc1nc(N2C[C@H]3C[C@@H]2CO3)cc(-n2ncc3cc(C)c(C4CCN(C5COC5)CC4)cc32)n1 [Example E1, (1R,4R)-5-(2-methoxy-6-(5-methyl-6-(1-(oxetan-3-yl)piperidin-4-yl)-1H-indazol-1-yl)pyrimidin-4-yl)-2-oxa-5-azabicyclo[2.2.1]heptane] | ≥ 6.0 |
| Cc1nc(N2CC3CC(C2)O3)cc(-n2ncc3cc(C)c(C4CCN(C5COC5)CC4)cc32)n1 [Example E44, 3-(2-Methyl-6-(5-methyl-6-(1-(oxetan-3-yl)piperidin-4-yl)-1H-indazol-1-yl)pyrimidin-4-yl)-6-oxa-3-azabicyclo[3.1.1]heptane] | ≥ 6.0 |
| Cc1nc(N2CC3CCC(C2)O3)cc(-n2ncc3cc(C)c(C4CCN(C5COC5)CC4)cc32)n1 [Example E42, 3-(2-Methyl-6-(5-methyl-6-(1-(oxetan-3-yl)piperidin-4-yl)-1H-indazol-1-yl)pyrimidin-4-yl)-8-oxa-3-azabicyclo[3.2.1]octane] | ≥ 6.0 |
| Cc1nc(N2C[C@H]3C[C@@H]2CO3)cc(-n2ncc3cc(C)c(C4CCN(C5CCOC5)CC4F)cc32)n1 (single isomer, unassigned) [Example E149] | ≥ 7.0 |
| COc1nc(N2C[C@H]3C[C@@H]2CO3)cc(-n2ncc3cc(C)c(C4CCNCC4)cc32)n1 [Example E58, (1R,4R)-5-(2-methoxy-6-(5-methyl-6-(piperidin-4-yl)-1H-indazol-1-yl)pyrimidin-4-yl)-2-oxa-5-azabicyclo[2.2.1]heptane] | ≥ 6.0 |
| Cc1nc(N2C[C@@H]3C[C@H]2CO3)cc(-n2ncc3cc(Cl)c(N4CCC(C)(O)CC4)cc32)n1 [Example E33, 1-(1-(6-((1S,4S)-2-oxa-5-azabicyclo[2.2.1]heptan-5-yl)-2-methylpyrimidin-4-yl)-5-chloro-1H-indazol-6-yl)-4-methylpiperidin-4-ol] | ≥ 6.0 |
| Cc1nc(N2C[C@H]3C[C@@H]2CO3)cc(-n2ncc3cc(Cl)c(N4CCC(C)(O)C4)cc32)n1 (single isomer, unassigned) [Example E50] | ≥ 6.0 |
| Cc1nc(N2C[C@H]3C[C@@H]2CO3)cc(-n2ncc3cc(C)c(C4CCN(C(=O)CO)CC4)cc32)n1 [Example E53, 1-(4-(1-(6-((1R,4R)-2-oxa-5-azabicyclo[2.2.1]heptan-5-yl)-2-methylpyrimidin-4-yl)-5-methyl-1H-indazol-6-yl)piperidin-1-yl)-2-hydroxyethanone] | ≥ 6.0 |
| COc1nc(N2C[C@@H]3C[C@H]2CO3)cc(-n2ncc3cc(C)c(C4CCN(C5COC5)CC4)cc32)n1 [Example E2, (1S,4S)-5-(2-methoxy-6-(5-methyl-6-(1-(oxetan-3-yl)piperidin-4-yl)-1H-indazol-1-yl)pyrimidin-4-yl)-2-oxa-5-azabicyclo[2.2.1]heptane] | ≥ 6.0 |
| Cc1nc(N2C[C@H]3C[C@@H]2CO3)cc(-n2ncc3cc(C)c(C4CCN(CCC(=O)O)CC4F)cc32)n1 (single isomer, unassigned) [Example E155] | ≥ 7.0 |
| Cc1nc(N2CC3(CO)CC2CO3)cc(-n2ncc3cc(C)c(C4CCN(C5CCOC5)CC4)cc32)n1 (single isomer, unassigned) [Example E153, (5-(2-methyl-6-(5-methyl-6-(1-(tetrahydrofuran-3-yl)piperidin-4-yl)-1H-indazol-1-yl)pyrimidin-4-yl)-2-oxa-5-azabicyclo[2.2.1]heptan-1-yl)methanol] | ≥ 7.0 |
| COc1nc(N2CC3CC(C2)O3)cc(-n2ncc3cc(C)c(C4CCNCC4)cc32)n1.O=C(O)C(F)(F)F [Example E60, 3-(2-methoxy-6-(5-methyl-6-(piperidin-4-yl)-1H-indazol-1-yl)pyrimidin-4-yl)-6-oxa-3-azabicyclo[3.1.1]heptane 2,2,2-trifluoroacetate] | ≥ 6.0 |
